Results taken from publication PMC3026782, “The Cytoskeletal Protein Ndel1 Regulates Dynamin 2 GTPase Activity” (PLoS ONE, 2011).
Results are given in words; binding and its absence hold for the method and conditions named. Binding calls can cover weak binding; strength is not graded here. For some of these results: Where a sequence is shown, tags or fusion partners need not be part of it. For some of these results: Binding seen in cells or lysates may run through a third protein.

T1: Ndel1 (human (endogenous in HeLa)) (UniProt Q9GZM8)
T1 sequence: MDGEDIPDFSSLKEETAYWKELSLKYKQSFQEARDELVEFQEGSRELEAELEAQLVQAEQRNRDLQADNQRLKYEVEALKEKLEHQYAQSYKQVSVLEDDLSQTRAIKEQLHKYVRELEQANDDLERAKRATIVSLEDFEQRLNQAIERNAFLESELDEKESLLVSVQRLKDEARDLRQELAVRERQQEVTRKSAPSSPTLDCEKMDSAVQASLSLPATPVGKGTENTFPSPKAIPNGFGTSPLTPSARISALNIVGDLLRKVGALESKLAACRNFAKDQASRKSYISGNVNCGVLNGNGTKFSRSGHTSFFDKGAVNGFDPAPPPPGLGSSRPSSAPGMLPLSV

B1: His-tagged Ndel1 (natural protein, UniProt Q9GZM8 1-345, looked up)
chain: MDGEDIPDFSSLKEETAYWKELSLKYKQSFQEARDELVEFQEGSRELEAELEAQLVQAEQRNRDLQADNQRLKYEVEALKEKLEHQYAQSYKQVSVLEDDLSQTRAIKEQLHKYVRELEQANDDLERAKRATIVSLEDFEQRLNQAIERNAFLESELDEKESLLVSVQRLKDEARDLRQELAVRERQQEVTRKSAPSSPTLDCEKMDSAVQASLSLPATPVGKGTENTFPSPKAIPNGFGTSPLTPSARISALNIVGDLLRKVGALESKLAACRNFAKDQASRKSYISGNVNCGVLNGNGTKFSRSGHTSFFDKGAVNGFDPAPPPPGLGSSRPSSAPGMLPLSV

Columns and labels:
[1] = biological target: T1, Ndel1 (human (endogenous in HeLa)); assay: co-IP; immunoprecipitation with Ndel1 antibodies from lysates (HeLa cells, CAD cells, rat primary hippocampal neurons, adult mouse cortex); lysis buffer 50 mM Tris-HCl pH 7.4, 150 mM NaCl, 10 mM KCl, 1 mM EDTA, 0.5% NP40, 0.5% Tween-20; controls without antibody or with Myc antibody
[2] = biological target: GST-Dyn2 F1 (GTPase domain); assay: pull-down; GST-fused Dyn2, its GST fragments or GST with His-tagged Ndel1 on Glutathione Sepharose 4 Fast Flow or Ni-NTA Agarose beads; 20 mM HEPES, 150 mM NaCl, 1 mM DTT, 0.1% BSA, 4°C, 2 hours; both purified
[3] = biological target: GST-Dyn2 F5 (GTPase+middle+PH+GED domains); assay: as above
GST-Dyn2 middle domain = assay: as above

Row | Molecule | binding [1] | binding [2] | binding [3] | binding (GST-Dyn2 middle domain)
1 | Dynein intermediate chain (human (endogenous in HeLa)) | binds | – | – | –
2 | B1 | – | binds | binds | binds
